Measured values as given in patent US12416036B2, “High-throughput enzyme assay for screening activity of acyltransferases” (CORNELL UNIVERSITY, priority 2021, dated 2025).
Some of these results come from one statement about several compounds together. At least one structure is not confirmed: it was looked up by name or label, or the drawing left a doubt.

Target: T1, ZDHHC3 (Homo sapiens, UniProt Q9NYG2)
T1 construct: HA; expressed in transfected cells; host or cells: HEK 293T cells
T1 sequence (Q9NYG2 1-299): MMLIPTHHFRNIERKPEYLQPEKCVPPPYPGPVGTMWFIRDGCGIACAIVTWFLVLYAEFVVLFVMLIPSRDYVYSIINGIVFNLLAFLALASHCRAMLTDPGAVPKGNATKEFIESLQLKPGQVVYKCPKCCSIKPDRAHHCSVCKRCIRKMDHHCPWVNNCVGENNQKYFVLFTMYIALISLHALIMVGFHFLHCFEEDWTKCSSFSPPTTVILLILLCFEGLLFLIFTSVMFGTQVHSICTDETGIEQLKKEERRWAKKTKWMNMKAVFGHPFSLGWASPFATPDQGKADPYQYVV
Experiment: STAT3 fatty acylation induced by ZDHHC3 in HEK293T cells (Alk14 labeling, in-gel fluorescence)
Assay type: cell-based
Conditions: 25 μM, 6-hour treatment
Source text: Next experiments also tested the four compounds for ZDHHC3 inhibition in HEK293T cells that over-express both ZDHHC3 and STAT3. […] Thus, the results from the Acyl-cLIP assay can be used to predict cellular responses.

SMILES: CCCCCCCCCCCCCCC(Br)C(=O)O (stereo not shown) [2-BP, 2-bromopalmitate, reference compound]
- decrease of ZDHHC3-catalyzed STAT3 acylation: more than 50%
